No constants are given. Whether binding was seen depends on the method and setting. In cells and extracts the contact can be indirect. Here binding means that the protein was enriched with, or labelled near, the bait; the list need not be complete. Where a sequence is shown, tags or fusion partners need not be part of it.
Target: T1, 6HIS-HA-JHD2 (S. cerevisiae) (UniProt P47156)
T1 sequence: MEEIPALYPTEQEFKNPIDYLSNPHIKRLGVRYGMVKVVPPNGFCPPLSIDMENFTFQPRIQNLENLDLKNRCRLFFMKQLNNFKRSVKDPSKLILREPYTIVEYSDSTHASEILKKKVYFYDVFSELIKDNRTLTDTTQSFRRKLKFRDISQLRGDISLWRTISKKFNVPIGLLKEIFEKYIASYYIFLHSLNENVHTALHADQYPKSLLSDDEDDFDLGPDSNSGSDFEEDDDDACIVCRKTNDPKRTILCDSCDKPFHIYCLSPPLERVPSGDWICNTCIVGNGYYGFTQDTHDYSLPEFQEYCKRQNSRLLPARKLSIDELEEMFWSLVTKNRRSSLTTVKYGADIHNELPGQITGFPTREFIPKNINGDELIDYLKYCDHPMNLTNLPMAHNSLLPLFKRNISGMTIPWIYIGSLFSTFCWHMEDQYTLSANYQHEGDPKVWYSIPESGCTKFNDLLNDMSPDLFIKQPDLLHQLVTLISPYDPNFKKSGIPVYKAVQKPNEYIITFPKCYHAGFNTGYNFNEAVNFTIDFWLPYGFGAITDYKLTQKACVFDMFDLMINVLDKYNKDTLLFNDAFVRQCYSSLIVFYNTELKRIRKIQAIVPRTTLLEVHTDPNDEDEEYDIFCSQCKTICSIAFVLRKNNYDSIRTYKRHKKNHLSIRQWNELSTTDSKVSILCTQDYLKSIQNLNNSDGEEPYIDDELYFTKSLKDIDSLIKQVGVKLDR
Experiment: affinity purification with mass spectrometry; whole cell extracts of a wild-type strain with 6HIS-HA-JHD2 induced from the GAL1 promoter for 6 hours; Ni-NTA agarose and anti-HA agarose beads at 4°C for 24 hours; proteins found with the empty vector strain excluded

Sequences of proteins named here, by UniProt entry; tags and fusion partners are left off.
UniProt P40969: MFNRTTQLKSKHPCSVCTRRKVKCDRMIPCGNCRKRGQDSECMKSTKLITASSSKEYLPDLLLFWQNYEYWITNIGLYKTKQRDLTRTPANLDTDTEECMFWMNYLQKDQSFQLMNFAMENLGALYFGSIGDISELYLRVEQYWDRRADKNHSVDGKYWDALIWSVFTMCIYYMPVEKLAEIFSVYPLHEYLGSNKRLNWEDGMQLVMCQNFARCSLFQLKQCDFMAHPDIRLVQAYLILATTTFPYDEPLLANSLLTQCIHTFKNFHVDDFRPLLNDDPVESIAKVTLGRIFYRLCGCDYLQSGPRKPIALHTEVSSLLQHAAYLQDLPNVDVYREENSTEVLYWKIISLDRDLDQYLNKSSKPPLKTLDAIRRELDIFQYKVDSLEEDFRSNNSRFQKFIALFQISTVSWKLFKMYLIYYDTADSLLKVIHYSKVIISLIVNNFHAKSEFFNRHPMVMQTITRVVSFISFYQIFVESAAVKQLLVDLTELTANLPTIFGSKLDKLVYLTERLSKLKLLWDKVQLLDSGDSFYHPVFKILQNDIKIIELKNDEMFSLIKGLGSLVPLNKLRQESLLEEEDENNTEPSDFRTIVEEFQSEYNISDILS
UniProt P41819: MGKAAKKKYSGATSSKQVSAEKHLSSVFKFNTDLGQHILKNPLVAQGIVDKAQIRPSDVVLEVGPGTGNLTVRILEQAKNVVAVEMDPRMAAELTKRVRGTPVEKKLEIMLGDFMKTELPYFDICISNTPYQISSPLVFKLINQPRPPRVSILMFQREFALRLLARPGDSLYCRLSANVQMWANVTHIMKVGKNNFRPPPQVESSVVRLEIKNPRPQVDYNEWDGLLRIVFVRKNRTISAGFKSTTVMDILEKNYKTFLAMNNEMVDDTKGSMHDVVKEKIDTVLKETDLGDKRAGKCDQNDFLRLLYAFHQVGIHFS
UniProt P48510: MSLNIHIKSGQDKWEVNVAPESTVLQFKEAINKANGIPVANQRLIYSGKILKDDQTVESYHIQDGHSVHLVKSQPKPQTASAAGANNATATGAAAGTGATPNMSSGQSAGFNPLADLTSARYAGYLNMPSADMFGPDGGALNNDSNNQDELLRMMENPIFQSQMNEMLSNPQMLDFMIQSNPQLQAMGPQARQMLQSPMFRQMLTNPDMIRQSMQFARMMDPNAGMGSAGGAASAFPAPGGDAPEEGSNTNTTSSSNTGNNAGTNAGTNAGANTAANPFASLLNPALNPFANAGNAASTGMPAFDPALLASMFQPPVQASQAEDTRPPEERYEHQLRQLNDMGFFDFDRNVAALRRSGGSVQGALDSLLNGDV
UniProt P34077: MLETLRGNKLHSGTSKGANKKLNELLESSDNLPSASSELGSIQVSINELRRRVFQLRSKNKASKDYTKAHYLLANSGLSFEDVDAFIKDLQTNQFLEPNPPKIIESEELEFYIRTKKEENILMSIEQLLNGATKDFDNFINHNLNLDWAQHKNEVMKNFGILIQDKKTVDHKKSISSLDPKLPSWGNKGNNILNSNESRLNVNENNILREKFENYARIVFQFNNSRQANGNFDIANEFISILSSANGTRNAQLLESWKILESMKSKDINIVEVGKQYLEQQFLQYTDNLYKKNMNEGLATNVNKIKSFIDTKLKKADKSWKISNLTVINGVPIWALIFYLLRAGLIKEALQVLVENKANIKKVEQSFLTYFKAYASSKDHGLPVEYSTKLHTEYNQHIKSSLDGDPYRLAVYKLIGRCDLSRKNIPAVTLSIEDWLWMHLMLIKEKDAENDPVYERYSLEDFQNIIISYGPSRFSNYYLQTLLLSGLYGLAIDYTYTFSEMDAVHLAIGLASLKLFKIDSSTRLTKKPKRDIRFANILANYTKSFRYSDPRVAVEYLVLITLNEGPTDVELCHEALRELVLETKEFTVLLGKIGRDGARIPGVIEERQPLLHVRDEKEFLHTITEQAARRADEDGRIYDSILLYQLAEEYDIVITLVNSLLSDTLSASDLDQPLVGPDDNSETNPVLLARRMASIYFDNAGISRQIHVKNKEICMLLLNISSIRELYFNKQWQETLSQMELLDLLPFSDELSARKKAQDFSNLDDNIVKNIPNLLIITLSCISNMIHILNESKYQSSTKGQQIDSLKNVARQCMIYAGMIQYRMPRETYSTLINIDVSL
UniProt P20676: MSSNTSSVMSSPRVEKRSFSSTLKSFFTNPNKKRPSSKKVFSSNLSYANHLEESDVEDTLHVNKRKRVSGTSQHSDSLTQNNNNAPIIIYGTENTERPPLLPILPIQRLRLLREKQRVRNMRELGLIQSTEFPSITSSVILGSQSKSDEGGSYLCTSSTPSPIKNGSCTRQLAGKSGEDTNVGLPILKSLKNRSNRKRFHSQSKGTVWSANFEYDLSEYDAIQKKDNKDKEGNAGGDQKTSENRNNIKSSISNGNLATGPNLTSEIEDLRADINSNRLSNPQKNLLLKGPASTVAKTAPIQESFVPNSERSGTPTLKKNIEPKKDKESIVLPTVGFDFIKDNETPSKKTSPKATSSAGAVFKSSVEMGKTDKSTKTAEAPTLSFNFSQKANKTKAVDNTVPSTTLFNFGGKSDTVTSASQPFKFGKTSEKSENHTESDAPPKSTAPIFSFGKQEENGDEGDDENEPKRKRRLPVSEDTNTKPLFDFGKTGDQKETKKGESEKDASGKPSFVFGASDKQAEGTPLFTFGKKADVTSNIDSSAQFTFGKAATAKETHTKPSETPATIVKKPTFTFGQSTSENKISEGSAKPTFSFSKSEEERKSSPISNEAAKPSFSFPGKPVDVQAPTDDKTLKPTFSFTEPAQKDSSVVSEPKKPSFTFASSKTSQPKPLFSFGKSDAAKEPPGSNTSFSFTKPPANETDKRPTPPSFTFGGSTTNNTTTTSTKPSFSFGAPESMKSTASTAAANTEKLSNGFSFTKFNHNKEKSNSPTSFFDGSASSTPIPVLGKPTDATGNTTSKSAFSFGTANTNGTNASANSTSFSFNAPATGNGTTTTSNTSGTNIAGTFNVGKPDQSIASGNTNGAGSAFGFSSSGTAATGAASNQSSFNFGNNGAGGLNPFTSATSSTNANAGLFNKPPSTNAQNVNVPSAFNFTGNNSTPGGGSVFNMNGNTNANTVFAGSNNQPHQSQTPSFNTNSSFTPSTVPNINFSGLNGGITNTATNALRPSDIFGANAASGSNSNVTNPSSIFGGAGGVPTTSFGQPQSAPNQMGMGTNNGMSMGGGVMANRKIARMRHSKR
UniProt P49686: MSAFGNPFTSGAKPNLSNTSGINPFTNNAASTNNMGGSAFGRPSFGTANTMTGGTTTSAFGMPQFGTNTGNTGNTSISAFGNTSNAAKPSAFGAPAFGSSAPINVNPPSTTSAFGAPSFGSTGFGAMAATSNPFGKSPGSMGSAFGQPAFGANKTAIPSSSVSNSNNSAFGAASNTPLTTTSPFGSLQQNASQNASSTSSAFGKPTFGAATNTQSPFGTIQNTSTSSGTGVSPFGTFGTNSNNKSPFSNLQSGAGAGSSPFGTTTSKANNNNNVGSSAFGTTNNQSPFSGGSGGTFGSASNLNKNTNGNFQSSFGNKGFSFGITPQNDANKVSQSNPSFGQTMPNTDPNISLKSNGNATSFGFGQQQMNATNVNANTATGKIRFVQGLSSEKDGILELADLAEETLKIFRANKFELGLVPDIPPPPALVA
UniProt P39685: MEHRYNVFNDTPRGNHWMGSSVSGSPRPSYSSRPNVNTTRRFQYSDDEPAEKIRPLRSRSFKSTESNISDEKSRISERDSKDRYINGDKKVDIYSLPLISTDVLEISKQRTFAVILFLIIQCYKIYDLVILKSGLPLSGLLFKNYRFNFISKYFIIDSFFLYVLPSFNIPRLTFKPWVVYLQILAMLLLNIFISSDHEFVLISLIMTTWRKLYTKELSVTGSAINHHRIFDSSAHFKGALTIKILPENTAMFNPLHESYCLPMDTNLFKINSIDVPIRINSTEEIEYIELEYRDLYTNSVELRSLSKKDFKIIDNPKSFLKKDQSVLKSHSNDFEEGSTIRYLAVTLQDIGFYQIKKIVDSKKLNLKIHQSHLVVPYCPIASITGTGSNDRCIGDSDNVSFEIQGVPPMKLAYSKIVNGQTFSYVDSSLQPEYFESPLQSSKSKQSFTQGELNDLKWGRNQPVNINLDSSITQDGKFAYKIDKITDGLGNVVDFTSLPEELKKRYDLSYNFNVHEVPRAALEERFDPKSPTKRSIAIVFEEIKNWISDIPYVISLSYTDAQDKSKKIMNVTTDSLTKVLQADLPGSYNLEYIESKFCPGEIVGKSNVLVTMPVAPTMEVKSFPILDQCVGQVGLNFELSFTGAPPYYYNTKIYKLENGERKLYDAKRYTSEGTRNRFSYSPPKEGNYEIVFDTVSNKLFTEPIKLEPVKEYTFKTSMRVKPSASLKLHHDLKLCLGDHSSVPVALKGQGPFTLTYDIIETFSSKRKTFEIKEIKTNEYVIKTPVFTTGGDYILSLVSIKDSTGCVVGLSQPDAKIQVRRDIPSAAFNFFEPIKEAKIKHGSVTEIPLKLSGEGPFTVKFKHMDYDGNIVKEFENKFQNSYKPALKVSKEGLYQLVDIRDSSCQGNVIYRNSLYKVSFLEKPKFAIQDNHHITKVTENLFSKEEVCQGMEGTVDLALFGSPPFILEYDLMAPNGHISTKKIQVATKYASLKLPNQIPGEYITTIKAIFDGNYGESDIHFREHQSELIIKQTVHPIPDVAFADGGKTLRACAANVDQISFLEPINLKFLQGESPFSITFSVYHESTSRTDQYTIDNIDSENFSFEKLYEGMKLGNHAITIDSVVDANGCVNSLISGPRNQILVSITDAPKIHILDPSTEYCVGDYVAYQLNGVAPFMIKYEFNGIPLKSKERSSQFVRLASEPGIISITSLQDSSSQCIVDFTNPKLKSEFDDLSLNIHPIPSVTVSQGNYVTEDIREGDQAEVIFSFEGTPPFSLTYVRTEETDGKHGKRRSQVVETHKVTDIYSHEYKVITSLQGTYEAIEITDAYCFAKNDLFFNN
UniProt Q12495: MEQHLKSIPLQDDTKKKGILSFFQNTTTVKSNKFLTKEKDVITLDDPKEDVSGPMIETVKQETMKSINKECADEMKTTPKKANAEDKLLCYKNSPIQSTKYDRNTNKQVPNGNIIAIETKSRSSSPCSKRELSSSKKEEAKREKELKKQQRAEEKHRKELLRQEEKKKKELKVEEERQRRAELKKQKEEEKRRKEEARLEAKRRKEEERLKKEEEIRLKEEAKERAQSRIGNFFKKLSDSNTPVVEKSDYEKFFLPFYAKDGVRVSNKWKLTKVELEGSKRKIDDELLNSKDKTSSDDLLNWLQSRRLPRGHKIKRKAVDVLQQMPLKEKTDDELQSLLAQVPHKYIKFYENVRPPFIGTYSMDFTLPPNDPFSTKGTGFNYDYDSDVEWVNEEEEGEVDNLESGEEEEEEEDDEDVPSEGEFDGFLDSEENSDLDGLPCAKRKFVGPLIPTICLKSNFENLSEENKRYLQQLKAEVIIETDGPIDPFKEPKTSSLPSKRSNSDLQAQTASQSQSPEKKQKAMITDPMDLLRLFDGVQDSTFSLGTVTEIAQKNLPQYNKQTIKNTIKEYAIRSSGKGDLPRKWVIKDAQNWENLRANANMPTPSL
UniProt P38903: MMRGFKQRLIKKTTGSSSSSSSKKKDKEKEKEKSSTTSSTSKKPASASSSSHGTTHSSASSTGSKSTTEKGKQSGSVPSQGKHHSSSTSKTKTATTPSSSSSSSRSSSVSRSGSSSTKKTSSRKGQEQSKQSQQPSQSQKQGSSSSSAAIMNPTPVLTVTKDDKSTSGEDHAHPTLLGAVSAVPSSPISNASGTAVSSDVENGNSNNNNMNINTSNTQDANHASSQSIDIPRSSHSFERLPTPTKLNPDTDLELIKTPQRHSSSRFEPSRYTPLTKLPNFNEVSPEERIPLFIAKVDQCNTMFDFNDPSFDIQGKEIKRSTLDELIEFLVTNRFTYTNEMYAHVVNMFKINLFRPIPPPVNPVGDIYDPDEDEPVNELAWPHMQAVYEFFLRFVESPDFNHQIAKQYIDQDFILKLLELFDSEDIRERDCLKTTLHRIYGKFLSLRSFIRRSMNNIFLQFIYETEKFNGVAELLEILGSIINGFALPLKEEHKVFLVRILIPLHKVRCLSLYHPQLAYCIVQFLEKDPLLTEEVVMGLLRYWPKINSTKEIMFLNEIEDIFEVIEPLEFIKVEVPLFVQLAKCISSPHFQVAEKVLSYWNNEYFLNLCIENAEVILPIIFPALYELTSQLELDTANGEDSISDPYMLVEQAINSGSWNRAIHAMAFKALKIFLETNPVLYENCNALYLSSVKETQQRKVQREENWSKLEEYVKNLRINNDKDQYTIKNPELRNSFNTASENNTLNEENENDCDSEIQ
UniProt P38340: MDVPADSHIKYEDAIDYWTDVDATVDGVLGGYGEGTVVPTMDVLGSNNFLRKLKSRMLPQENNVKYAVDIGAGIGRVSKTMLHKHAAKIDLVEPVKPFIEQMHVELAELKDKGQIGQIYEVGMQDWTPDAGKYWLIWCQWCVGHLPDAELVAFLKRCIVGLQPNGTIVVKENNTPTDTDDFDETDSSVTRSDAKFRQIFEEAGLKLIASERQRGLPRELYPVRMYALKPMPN

| binding | Substance |
| --- | --- |
| binds | ABD1 (from UniProt P32783 1-436) |
| binds | Bni1 (from UniProt P41832 1-1953) |
| binds | CDC21 (from UniProt P06785 1-304) |
| binds | CEP3 (from UniProt P40969 1-608) |
| binds | MAD2 (from UniProt P40958 1-196) |
| binds | MCM16 (from UniProt Q12262 1-181) |
| binds | NUF2 (from UniProt P33895 1-451) |
| binds | NUP57 (from UniProt P48837 1-541) |
| binds | NUP159 (from UniProt P40477 1-1460) |
| binds | RIF1 (from UniProt P29539 1-1916) |
| binds | SCM3 (from UniProt Q12334 1-223) |
| binds | TRM8 (from UniProt Q12009 1-286) |

The next lines start with the substance.

| Substance | binding |
| --- | --- |
| CAC2 (from UniProt Q04199 1-468) | binds |
| CBF1 (from UniProt P17106 1-351) | binds |
| DIM1 (from UniProt P41819 1-318) | binds |
| DSK2 (from UniProt P48510 1-373) | binds |
| GCD14 (from UniProt P46959 1-383) | binds |
| MLP1 (from UniProt Q02455 1-1875) | binds |
| MSI1 (from UniProt P13712 1-422) | binds |
| NIC96 (from UniProt P34077 1-839) | binds |
| NUP1 (from UniProt P20676 1-1076) | binds |
| NUP2 (from UniProt P32499 1-720) | binds |
| NUP42 (from UniProt P49686 1-430) | binds |
| NUP49 (from UniProt Q02199 1-472) | binds |
| NUP82 (from UniProt P40368 1-713) | binds |
| NUP100 (from UniProt Q02629 1-959) | binds |
| NUP145 | binds |
| NUP157 (from UniProt P40064 1-1391) | binds |
| NUP170 (from UniProt P38181 1-1502) | binds |
| NUP188 (from UniProt P52593 1-1655) | binds |
| NUP192 (from UniProt P47054 1-1683) | binds |
| POM152 (from UniProt P39685 1-1337) | binds |
| RLF2 (from UniProt Q12495 1-606) | binds |
| RTS1 (from UniProt P38903 1-757) | binds |
| SFH1 (from UniProt Q06168 1-426) | binds |
| SMC3 (from UniProt P47037 1-1230) | binds |
| SPC24 (from UniProt Q04477 1-213) | binds |
| TAE1 (from UniProt P38340 1-232) | binds |
| TRM1 | binds |
